The other results are listed elsewhere or left out. Shown are side measurements of this screen, not its main read-out; they come without a call. Compounds called inactive in the main read-out are mostly missing here. Words in brackets tell the shape of the fitted curve; partial curves, single points and poor fits give uncertain potencies.
Assay: qHTS Assay for Lipid Storage Modulators in Drosophila S3 Cells;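 as to cell number change: cells counted by Cell Tracker Red CMTPX staining in the red channel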
Conditions: BODIPY lipid droplet fluorescence, 18-24 h; for cell number change: measured here: cell count max response, cells fed with added oleic acid
How it was run: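 Drosophila S3 cells loaded with oleic acid (400 uM, as added) and compounds at several concentrations; lipid droplets imaged by 488-nm laser-scanning cytometry, 500–530 nm intensity and object ratio to cell channel. Percent activity normalized to 20 uM Triacsin C.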

[1] = measured here: cell number channel AC50, cells fed with added oleic acid
[2] = measured here: lipid fluorescence (Fed channel) AC50, cells fed with added oleic acid

Q: For `CCOc1ccccc1Nc1ncnc2c1cnn2-c1ccccc1`, which AC50 [1] is on record?
A: 3.26 µM [rising, partial curve]

Q: What does the source list for `O=C1Nc2ccccc2S/C1=C\C(=O)N1CCCC1`?
A: AC50 [1]: 6.51 µM [rising, single point]; AC50 [2]: 3.66 µM [falling, single point]

Q: For `O=C(NCCOc1ccccc1F)c1cc(F)c(F)cc1Cl`, which cell number change is on record?
A: 8.65%

Q: What about the AC50 [2] of the same compound?
A: 0.411 µM [rising, partial curve]

Q: For `OCCCNc1cc(-c2ccccc2)nc2cc(-c3ccc(F)cc3)nn12`, which cell number change is on record?
A: 5.28%

Q: What about the AC50 [2] of the same compound?
A: 0.184 µM [rising, full curve, poor fit]

Q: Which results are given for `CCN(C(=O)CSc1ccc2ccccc2n1)C1CCS(=O)(=O)C1` (configuration not stated)?
A: cell number change: 46.4%; AC50 [1]: 0.517 µM [rising, full curve]

Q: Which results are given for `COC(=O)c1c(C)[nH]c(C(=O)/C=C/c2ccccc2)c1C`?
A: cell number change: 5.87%; AC50 [2]: 0.058 µM [rising, full curve, poor fit]

Q: For `Cc1ccc(S(=O)(=O)N2CCCC2C(=O)Nc2cc(C)on2)cc1` (configuration not stated), which cell number change is on record?
A: -7.16%

Q: Which AC50 [1] does the source give for `CCN(CC)c1ccc(S(=O)(=O)N2CCOCC2)cc1NC(=O)CSc1nncs1` here?
A: 6.51 µM [falling, single point]

Q: What about the AC50 [2] of the same compound?
A: 1.46 µM [falling, full curve]

Q: For `Cc1ccc2c(c1)N(CC(=O)NCC(C)c1ccccc1)C(=O)c1cccnc1O2` (configuration not stated), which cell number change is on record?
A: -11%

Q: What does the source list for `Brc1ccc(CN2CC[C@H]3C=CCc4cccc(c43)C2)cc1`?
A: cell number change: -30.8%; AC50 [1]: 20.6 µM [falling, single point]; AC50 [2]: 29.1 µM [falling, single point]

Q: With `O=C(CCCOc1ccccc1)Nc1ccc(Cl)cn1` as the compound, how does the cell number change read?
A: 22.3%

Q: What about the AC50 [2] of the same compound?
A: 0.82 µM [falling, full curve, poor fit]

Q: Which cell number change does the source give for `CSc1nnc(N2C(=O)C(O)=C(C(=O)c3ccco3)C2c2ccccc2)s1` (configuration not stated) here?
A: 11.5%

Q: What about the AC50 [2] of the same compound?
A: 0.58 µM [rising, single point]

Q: For `Cc1nc2scc(C)n2c(=O)c1S(=O)(=O)N1CCN(c2cccc(C(F)(F)F)c2)CC1`, which cell number change is on record?
A: 41.3%

Q: What about the AC50 [1] of the same compound?
A: 29.1 µM [rising, single point]

Q: And the AC50 [2]?
A: 29.1 µM [rising, single point]

Q: For `COC(=O)CCCC1=CC2=C(c3ccccc3)C(=O)C(C)(OC(=O)C3CCCC3)C(=O)C2=CN1Cc1ccc(OC)cc1` (configuration not stated), which cell number change is on record?
A: -19.3%

Q: Which results are given for `CCOc1cc(C(=O)Nc2ccc([N+](=O)[O-])cn2)cc(OCC)c1OCC`?
A: cell number change: -62.4%; AC50 [1]: 29.1 µM [falling, single point]; AC50 [2]: 29.1 µM [falling, single point]

Q: With `CCOc1ccc(NS(=O)(=O)c2ccc(C(=O)NC3CCC(O)CC3)cc2)cc1` (configuration not stated) as the compound, how does the AC50 [2] read?
A: 5.8 µM [falling, single point]

Q: Which results are given for `CCCCN(CCCC)NC(=O)c1ccccc1`?
A: cell number change: 19.2%; AC50 [1]: 0.517 µM [falling, single point]; AC50 [2]: 0.517 µM [falling, single point]

Q: Which AC50 [1] does the source give for `Cc1cc(C)cc(N=C2NC(=O)/C(=C/c3cccs3)S2)c1` here?
A: 6.51 µM [rising, single point]

Q: With `CCOc1ccc(-c2nc(N)nc(C)c2-c2ccc(Cl)cc2)c(O)c1` as the compound, how does the cell number change read?
A: -41.7%

Q: And the AC50 [1]?
A: 16.4 µM [falling, single point]

Q: And the AC50 [2]?
A: 18.4 µM [falling, single point]

Q: Which AC50 [1] does the source give for `COc1ccccc1N1CCN(CCC(=O)Nc2ccc3c(c2)OCO3)CC1` here?
A: 0.058 µM [rising, full curve, poor fit]

Q: And the AC50 [2]?
A: 0.058 µM [rising, full curve, poor fit]

Q: With `CCC(=O)Nc1c2c(nn1-c1cccc(Cl)c1)CSC2` as the compound, how does the cell number change read?
A: 44.5%

Q: What about the AC50 [1] of the same compound?
A: 5.8 µM [rising, full curve]

Q: And the AC50 [2]?
A: 5.17 µM [rising, full curve]

Q: Which results are given for `CSCCC(Nc1nc2ccccc2s1)C(=O)O` (configuration not stated)?
A: cell number change: -88.7%; AC50 [1]: 23.1 µM [falling, partial curve, poor fit]; AC50 [2]: 0.206 µM [falling, full curve, poor fit]

Q: For `CCOc1ccc(CCNC(=O)CSc2cc(=O)n(C)c3cc(Cl)ccc23)cc1OCC`, which cell number change is on record?
A: 21.5%

Q: What about the AC50 [1] of the same compound?
A: 0.146 µM [rising, full curve, poor fit]

Q: And the AC50 [2]?
A: 0.146 µM [rising, full curve, poor fit]

Q: Which results are given for `O=C(Nc1cccc(S(=O)(=O)N2CCOCC2)c1)c1cn(-c2ccccc2)nc1-c1ccc(F)cc1`?
A: cell number change: -1.18%; AC50 [2]: 6.51 µM [rising, single point]

Q: With `CSc1nc2c(c(=O)[nH]c(=O)n2C)n1Cc1ccc(Cl)cc1` as the compound, how does the cell number change read?
A: -19%

Q: And the AC50 [2]?
A: 0.146 µM [rising, full curve, poor fit]

Q: Which cell number change does the source give for `O=C(O)c1cc2sccc2s1` here?
A: -4.35%

Q: Which cell number change does the source give for `Cc1ccc(CS(=O)Cc2ccc(C(=O)NC3CCC(C)CC3)o2)cc1` (configuration not stated) here?
A: -1.24%

Q: Which cell number change does the source give for `CCOC(=O)c1cn(-c2ccc([N+](=O)[O-])cc2)c2cc(Cl)c([N+](=O)[O-])cc2c1=O` here?
A: -12.1%

Q: And the AC50 [2]?
A: 0.0231 µM [falling, full curve, poor fit]

Q: What does the source list for `O=C(O)CCn1nnc(-c2ccccc2)n1`?
A: cell number change: 33.1%; AC50 [1]: 32.6 µM [rising, single point]; AC50 [2]: 29.1 µM [rising, single point]

Q: For `COc1ccccc1N1CCN(CC(O)COc2c(OC)cccc2OC)CC1` (configuration not stated), which cell number change is on record?
A: -22.4%

Q: And the AC50 [2]?
A: 0.58 µM [falling, full curve]

Q: Which AC50 [2] does the source give for `Cc1ccc(/C=N/N=C2/NC(=O)CS2)o1` here?
A: 0.291 µM [falling, single point]

Q: Which cell number change does the source give for `COc1ccc(C)cc1-n1nnnc1SCc1cn2ccsc2n1` here?
A: -1.9%

Q: With `O=C(NC(=S)NC1CCS(=O)(=O)C1)c1ccccc1` (configuration not stated) as the compound, how does the cell number change read?
A: 34.1%

Q: What about the AC50 [1] of the same compound?
A: 7.31 µM [rising, partial curve]

Q: What about the AC50 [2] of the same compound?
A: 0.651 µM [rising, full curve, poor fit]

Q: With `Cc1ccc(F)cc1NC(=O)COC(=O)COc1ccc(C#N)cc1` as the compound, how does the cell number change read?
A: -15.7%

Q: What about the AC50 [2] of the same compound?
A: 0.184 µM [falling, full curve, poor fit]

Q: For `Cc1cc(Nc2ccccc2)c2c([N+](=O)[O-])c(C)cc(C)c2n1`, which cell number change is on record?
A: -25.1%

Q: And the AC50 [2]?
A: 1.16 µM [falling, full curve]

Q: With `OCC(O)/C=N/Nc1nc(N2CCCCC2)nc(N2CCCCC2)n1` (configuration not stated) as the compound, how does the cell number change read?
A: -35.5%

Q: And the AC50 [1]?
A: 23.1 µM [falling, single point]

Q: And the AC50 [2]?
A: 18.4 µM [falling, single point]

Q: For `Cc1ccc(S(=O)(=O)Nc2ccc3c(c2)OCCO3)cc1`, which AC50 [2] is on record?
A: 4.61 µM [falling, single point]

Q: Which cell number change does the source give for `O=S(=O)(c1ccc(Nc2ccc3c(c2)OCO3)nc1)N1CCOCC1` here?
A: 14.1%

Q: For `COc1cc([N+](=O)[O-])cc2sc(NC(=O)C3CC3)nc12`, which cell number change is on record?
A: 31.5%

Q: Which cell number change does the source give for `COc1ccc(NC(=O)CC2C(=O)N(c3ccc(F)cc3)C(=S)N2NC(=O)c2ccc(Cl)cc2)cc1` (configuration not stated) here?
A: -40.9%

Q: And the AC50 [1]?
A: 32.6 µM [falling, single point]

Q: What about the AC50 [2] of the same compound?
A: 0.103 µM [falling, full curve, poor fit]

Q: For `O=C(CN1CCN(S(=O)(=O)c2ccccc2)CC1)Nc1ccccc1C(=O)NC1CC1`, which cell number change is on record?
A: 25.8%

Q: And the AC50 [2]?
A: 0.326 µM [rising, full curve, poor fit]

Q: Which results are given for `CC(C)N1CCc2c(sc(NC(=O)c3ccc(S(=O)(=O)N4CCc5ccccc54)cc3)c2C(N)=O)C1`?
A: cell number change: -10.7%; AC50 [2]: 29.1 µM [falling, single point]

Q: Which results are given for `Cc1ccc(S(=O)(=O)Nc2ccc3c(c2)nc(CN2CCCC2)n3C)cc1`?
A: AC50 [1]: 0.259 µM [rising, full curve]; AC50 [2]: 0.259 µM [rising, full curve]

Q: Which AC50 [2] does the source give for `COc1ccc(NC(=O)CCN2CCN(S(=O)(=O)c3ccc(Cl)cc3)CC2)cc1` here?
A: 5.17 µM [rising, single point]

Q: With `CCOC(=O)C1CCN(CCC(=O)Nc2ccc(F)cc2)CC1` as the compound, how does the cell number change read?
A: 24.8%

Q: With `CCOC(=O)C(C(=O)OCC)C(Nc1ccccc1)c1ccccc1` (configuration not stated) as the compound, how does the cell number change read?
A: -9.84%

Q: And the AC50 [2]?
A: 25.9 µM [falling, single point]

Q: With `COc1cc(Br)c(CC(=O)NC2CC2)cc1OC` as the compound, how does the cell number change read?
A: -4.05%

Q: Which cell number change does the source give for `CN1CCN(Cn2cc(/C=C/C(=O)c3ccccc3)c3ccccc32)CC1` here?
A: -88.8%

Q: And the AC50 [1]?
A: 16.4 µM [falling, partial curve, poor fit]

Q: And the AC50 [2]?
A: 23.1 µM [falling, single point]

Q: Which results are given for `CC(=O)c1c(C)[nH]c(C(=O)OCC(=O)Nc2sc3c(c2C#N)CCCC3)c1C`?
A: cell number change: 29.9%; AC50 [2]: 3.26 µM [rising, partial curve]

Q: With `O=C(/C=C/c1ccccc1Cl)c1ccc[nH]1` as the compound, how does the AC50 [2] read?
A: 1.84 µM [rising, full curve, poor fit]

Q: Which cell number change does the source give for `COc1ccc(CNCCC(c2ccccc2)c2ccc3c(c2)OCO3)cc1` (configuration not stated) here?
A: -49.2%

Q: With `C/C(=N\NC(=O)OC(C)(C)C)c1ccccc1Br` as the compound, how does the cell number change read?
A: 113%

Q: And the AC50 [1]?
A: 6.51 µM [falling, partial curve, poor fit]

Q: What does the source list for `O=C(CSCc1ccc(Cl)cc1)Nc1ccccc1O`?
A: cell number change: -16.9%; AC50 [2]: 6.51 µM [falling, single point]

Q: Which results are given for `COc1ccc(NC(=O)N2CCCC2C(=O)Nc2ccc(C)cc2C)cc1` (configuration not stated)?
A: cell number change: 38%; AC50 [1]: 14.6 µM [rising, partial curve]

Q: Which AC50 [2] does the source give for `O=c1c2ccccc2c(/C=N/n2cnnc2)c(O)n1-c1ccccc1` here?
A: 6.51 µM [falling, single point]

Q: For `O=C(O)CC/C(=C\c1ccc(N2CCCC2)c([N+](=O)[O-])c1)c1nc2ccccc2s1`, which cell number change is on record?
A: 23.1%

Q: What about the AC50 [2] of the same compound?
A: 18.4 µM [rising, single point]

Q: Which cell number change does the source give for `Cc1cccc(CCNC(=O)CCNC(=O)Cn2ccc3ccccc3c2=O)c1` here?
A: -34.3%

Q: What about the AC50 [1] of the same compound?
A: 9.2 µM [falling, partial curve]

Q: And the AC50 [2]?
A: 10.3 µM [falling, partial curve]

Q: Which results are given for `Cc1ccc2c(C)c(C(=O)NCCN3CCOC3=O)oc2c1C`?
A: cell number change: 35.3%; AC50 [1]: 35.5 µM [rising, partial curve]; AC50 [2]: 17.8 µM [rising, partial curve, poor fit]
